# Percent effect of library compounds

The chains behind the UniProt entries cited, without tags or fusion partners. Residues count along the entry.
UniProt Q8IDJ8, 1-583: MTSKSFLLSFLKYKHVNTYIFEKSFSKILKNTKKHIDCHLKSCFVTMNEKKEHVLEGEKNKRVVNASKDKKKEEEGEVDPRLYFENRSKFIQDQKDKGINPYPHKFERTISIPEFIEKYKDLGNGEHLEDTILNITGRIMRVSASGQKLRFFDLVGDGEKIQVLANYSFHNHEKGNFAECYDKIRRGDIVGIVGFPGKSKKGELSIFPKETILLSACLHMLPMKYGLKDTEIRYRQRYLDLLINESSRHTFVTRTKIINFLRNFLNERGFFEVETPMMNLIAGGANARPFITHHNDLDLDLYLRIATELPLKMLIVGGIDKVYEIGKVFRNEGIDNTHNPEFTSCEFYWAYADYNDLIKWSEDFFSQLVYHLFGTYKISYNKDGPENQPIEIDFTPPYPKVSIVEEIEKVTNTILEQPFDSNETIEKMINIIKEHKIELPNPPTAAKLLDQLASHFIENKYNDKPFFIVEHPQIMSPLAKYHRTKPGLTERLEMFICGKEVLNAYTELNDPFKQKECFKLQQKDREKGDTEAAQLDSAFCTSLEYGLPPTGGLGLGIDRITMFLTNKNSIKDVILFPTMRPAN
UniProt Q4DA54, 1-478: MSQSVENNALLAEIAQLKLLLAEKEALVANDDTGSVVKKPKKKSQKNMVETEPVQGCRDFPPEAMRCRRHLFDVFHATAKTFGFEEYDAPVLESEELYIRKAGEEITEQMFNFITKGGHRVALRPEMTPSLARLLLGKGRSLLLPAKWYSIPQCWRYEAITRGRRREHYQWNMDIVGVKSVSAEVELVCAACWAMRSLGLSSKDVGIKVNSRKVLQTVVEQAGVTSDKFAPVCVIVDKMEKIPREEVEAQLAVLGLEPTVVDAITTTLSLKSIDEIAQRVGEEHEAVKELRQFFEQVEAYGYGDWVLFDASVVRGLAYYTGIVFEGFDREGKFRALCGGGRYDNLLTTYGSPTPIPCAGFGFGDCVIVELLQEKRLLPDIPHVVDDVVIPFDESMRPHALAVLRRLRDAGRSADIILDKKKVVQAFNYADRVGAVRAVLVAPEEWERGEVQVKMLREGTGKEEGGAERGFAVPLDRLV

The filed quantity is “Percent Effect” (%).
The record does not define 0% and 100%; most values in the screen are far below 50% and negative numbers occur (in some assays of this library far below -100).
This is an unselected part of the compounds tested.
Two or more numbers in one place are separate tests of the same structure; such repeats can differ widely.
A dash means the value is not listed here; it may have been measured.

Leishmania in macrophages: 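Cell assay of Leishmania donovani living inside macrophages; the read-out is not stated. Tested at 30 µM. Higher reads as stronger inhibition (inferred: compounds with an IC50 in retests scored well above the rest). Of about 69,000 compounds tested this way, about 1,000 (1.5%) reached 50% or more in at least one test.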
T. brucei: 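Whole-parasite assay of Trypanosoma brucei over 72 hours; the read-out is not stated. Tested at 30 µM. The record gives no direction; compounds that gave an IC50 in retests scored well above the rest, so higher reads as stronger inhibition. Values scatter widely below zero; nearly all retest evidence comes from the higher of the two concentrations used. About 64,000 compounds were tested under these conditions; 1.5% (about 940) showed 50% or more at least once.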
Toxoplasma: 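Assay of Toxoplasma gondii numbers, read through their beta-galactosidase reporter with a colour substrate. Tested at 10 µM. The record gives no direction; the compounds picked for IC50 retests had high values, so higher reads as fewer parasites. Size under these conditions: about 67,000 compounds, about 260 of them at 50% or above in at least one test.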
PfKRS1: 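Lysine-tRNA ligase, Plasmodium falciparum 3D7 (UniProt Q8IDJ8). Enzyme assay of the cytosolic lysyl-tRNA synthetase in 384-well plates, read by luminescence. Concentration: 30 µM. Direction is inferred from only a few compounds that gave an IC50; most scored high, so higher reads as stronger inhibition. Size under these conditions: about 69,000 compounds, about 49 of them at 50% or above in at least one test.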
TcHisRS: 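Enzyme assay of histidyl-tRNA synthetase; the read-out is not stated. Target: Histidine-tRNA ligase, Trypanosoma cruzi CL Brener (UniProt Q4DA54). Tested at 30 µM. Higher reads as stronger inhibition (inferred: compounds with an IC50 in retests scored well above the rest). About 69,000 compounds were tested under these conditions; 0.045% (about 31) showed 50% or more at least once.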

| # | SMILES | Leishmania in macrophages | T. brucei | Toxoplasma | PfKRS1 | TcHisRS |
|---|---|---|---|---|---|---|
| 1 | `COC(=O)c1cc(C(=O)N2CCc3ccc(F)cc3C2C)ccn1` (stereo not drawn) | -19.5 | -10.38 | 2.89 | 1.53 | 8.108 |
| 2 | `O=C(c1ccnnc1)N1C[C@H](OCC2CCOCC2)[C@H]2OCCC[C@H]21` | - | - | - | 5.475 | 2.4 |
| 3 | `Cc1csc(N2CCN(C(=O)Cc3ccc(C)s3)CC2)n1` | 2.669 | -14.97 | 3.044 | 1.084 | 2.256 |
| 4 | `Cc1nc(CN2C[C@@H]3CCCO[C@@H]3[C@H](NC(=O)CC3CC3)C2)cs1` | - | - | - | 8.569 | 2.941 |
| 5 | `CN(C)c1no[n+]([O-])c1-c1ccccc1` | 40.17 | -64.38 | -25.45 | -4.452 | 0.5181 |
| 6 | `CC(Cn1ccnc1)NC(=O)N(C)Cc1ccc2c(c1)OCCO2` (stereo not drawn) | 4.367 | -11.62 | -17.32 | 2.896 | 8.646 |
| 7 | `O=C(O)C(F)(F)F.[H][C@@]12C[C@@H](C(=O)NC(C)C)C[C@@]1([H])N(Cc1nccs1)CCO2` | 0.9736 | 5.108 | 1.724 | - | - |
| 8 | `COC(CNC(=O)NCc1c(C)cc(C)[nH]c1=O)c1ccccc1` (stereo not drawn) | -11.69 | 11.16 | -4.155 | 0.3572 | 4.624 |
| 9 | `O=C1C[C@@H]2CCN(Cc3ccccc3)C[C@@H]2CCN1c1ccccc1` | - | - | - | 2.997 | 9.901 |
| 10 | `CCCN1CC2(CCN(C)CC2)CC1C(=O)NCCn1cc(C)cn1` (stereo not drawn) | 11.92 | -4.622 | -9.91 | 4.326 | 7.143 |
| 11 | `NC(=O)CN(Cc1ccc(Br)cc1)C(=O)c1cccnc1` | 0.1489 | -24.37 | 6.548 | 2.468 | 2.762 |
| 12 | `CCc1ncnc2c1CCN(CCOC)CC2` | - | - | - | 5.664 | 1.105 |
| 13 | `CC(=O)N1CCN(CCNS(=O)(=O)c2c(F)cccc2F)CC1` | 11.24 | 2.154 | 13.44 | 4.663 | 9.548 |
| 14 | `CC(C)Nc1cccc(CC2CCN(C)C2)n1.O=CO` (stereo not drawn) | 8.612 | -41.23 | 4.807 | - | - |
| 15 | `Cc1cc(C)n(-c2cc(N3CCN(C(=O)C(C)(C)C)CC3)nc(C)n2)n1` | 13.75 | 39.36 | -3.744 | 3.359 | 1.245 |
| 16 | `CNS(=O)(=O)CCCN1CCN(C(C)c2cccnc2)CC1` (stereo not drawn) | 15.33 | -20.35 | -16.35 | -0.08347 | 2.469 |
| 17 | `CCN1CCn2cc(CNC(=O)c3cnn(C)c3)nc2C1` | - | - | - | -1.259 | 0.6135 |
| 18 | `Cc1ccc(CN2CCC3(C2)C(=O)N(CC2CC2)c2ccccc23)s1.O=C(O)C(F)(F)F` (stereo not drawn) | 18 | 92.57 | 12.46 | - | - |
| 19 | `O=C(Cc1ccccc1)N1CCC2(CC1)CN(c1ncccn1)CCO2` | 60.82 | -31.39 | 15.03 | 0.2084 | 13.27 |
| 20 | `CCn1ncc2c1C(COCC1CC1)CN(c1ccncn1)C2` (stereo not drawn) | - | - | - | 8.595 | 14.05 |
| 21 | `O=C(NCC(O)(c1ccco1)C1CC1)c1c(F)cccc1Cl` (stereo not drawn) | 26.06 and -21.89 | -6.609 | -10.6 | -0.9501 | 8.434 |
| 22 | `CC(C)(O)CCc1ccc(C(=O)NCCC2CCOC2)cc1` (stereo not drawn) | 25.85 | -5.103 | 13.52 | 7.845 | 5.051 |
| 23 | `CN(Cc1cccc(C(N)=O)c1)CC1CCCN1c1cccnn1` (stereo not drawn) | 35.2 | - | 15.82 | -0.3658 | 9.038 |
| 24 | `CCN1C[C@H]2CCN(C(=O)Nc3ccccc3C)CC[C@H]2S1(=O)=O` | - | - | - | -0.7113 | -10.68 |
| 25 | `COc1cc(NCC(=O)NC(C)(C#N)C(C)C)cc(OC)c1OC` (stereo not drawn) | 1.451 | -53.39 | 2.805 | 4.259 | 14.65 |
| 26 | `CCc1noc(C)c1C(=O)N1CCCCC1Cn1cc(C)cn1` (stereo not drawn) | -54.46 | -17.57 | -14.99 | -4.392 | 1.156 |
| 27 | `O=C(O)CCC(=O)N1CCC(c2noc3cc(F)ccc23)CC1` | -1.096 | -36.17 | -9.441 | 5.922 | 9 |
| 28 | `Cc1ccc2c(C)c(C(=O)NCCc3csc(N)n3)oc2c1` | -7.594 | -48.7 | -8.284 | -2.873 | 2.646 |
| 29 | `COCCn1ccc(NC(=O)Nc2cccnc2)n1` | -9.736 | 17.19 | -0.1508 | 0.3366 | 2.174 |
| 30 | `CCc1ncc2c(n1)CN(Cc1nc(-c3ccco3)oc1C)CC2` | -0.4578 | -9.199 | -4.499 | 2.663 | 24.12 |
| 31 | `Cc1noc(C2CCN(C(=O)CCc3nccs3)CC2)n1` | 17.11 | -1.977 | 4.586 | 4.431 | 4.58 |
| 32 | `Cc1n[nH]c(C)c1CCC(=O)NC1CCCN(c2ccccc2F)C1` (stereo not drawn) | -16.62 | -23.38 | 5.67 | 6.293 | 3.448 |
| 33 | `O=C(C1CCOC1)N1CCc2ncc(CNc3ccccn3)n2CC1` (stereo not drawn) | 13.62 | 6.545 | -2.377 | 4.37 | 7.104 |
| 34 | `CCOc1cccc(NS(=O)(=O)c2cc(C(=O)O)cs2)c1` | 5.703 | 8.584 | -1.122 | 10.66 | -1.667 |
| 35 | `COC1COC2(CCN(Cc3cccc(Cl)c3)CC2)C1.O=C(O)C(F)(F)F` (stereo not drawn) | 41.54 | -22.73 | 10.55 | - | - |
| 36 | `Cc1cc(C)cc(OCCC(=O)NC2CC(=O)N(C)C2)c1` (stereo not drawn) | 12.26 | -43.93 | 4.854 | 5.835 | 3.185 |
| 37 | `O=C(O)C(F)(F)F.[H][C@@]12CCCO[C@]1([H])[C@@H](OCC)CN2CC1CCOCC1` | 25.16 | -16.43 | -13.85 | - | - |
| 38 | `O=C(c1cn(Cc2ccccc2)c2ncccc12)N1CCOCC1` | 7.754 | 0.4922 | 14.71 | 4.843 | 13.64 |
| 39 | `CCOCCN1CCN(Cc2coc(-c3cccc(F)c3)n2)CC1` | 31.79 | -16.94 | -4.383 | 0.4513 | 2.874 |
| 40 | `CC(C)c1nnc(C2CCN(CC(=O)Nc3cccnc3)CC2)o1` | 11.87 | 5.201 | -6.823 | 7.679 | 0.5291 |
| 41 | `CN1CC[C@H](N(Cc2ccccc2)C2COC2)C[C@H](O)C1` | 13.11 | 10.34 | -7.67 | 0.007674 | -2.312 |
| 42 | `O=C(c1cnccn1)N1CC[C@H]2[C@@H]1CCC(=O)N2c1cccnc1` | - | - | - | 3.828 | 10.2 |
| 43 | `COCc1cc(C[C@@H]2CC[C@H](O)[C@@H](CN(C)C)O2)no1` | 19.15 | 7.616 | 1.71 | 6.093 | -2.488 |
| 44 | `CSc1ccc(C(=O)N2C[C@H]3CC[C@@H]2CN(Cc2ccccc2)C3)cc1` | - | - | - | 2.237 | 10.99 |
| 45 | `O=C(c1coc(COc2cccc3cnccc23)n1)N1CCSCC1` | 12.36 | -189.8 | 9.788 | 2.952 | 3.261 |
| 46 | `COc1ccccc1C(O)Cn1cc(C(=O)NCC2CC2)nn1` (stereo not drawn) | 12.77 and -1.986 | 18.86 | -1.544 | 0.1698 | 1.031 |
| 47 | `COc1ncccc1CNC(=O)NC1CCCOc2ccccc21` (stereo not drawn) | -2.615 | -12.1 | 3.738 | 1.763 | 2.312 |
| 48 | `CCc1ncnc2c1CCN(C(=O)c1ccccn1)CC2` | - | - | - | 0.8597 | 4.878 |
| 49 | `CC(C)[C@H]1CN(CCCO)C[C@@H]1NC(=O)CCS(C)(=O)=O` | 6.479 | 36.39 | 0 | 6.16 | 0.8 |
| 50 | `CCCOc1ccc2ccccc2c1CN1CC[C@@]2(O)CCNC[C@H]2C1` | - | - | - | -0.0836 | 1.093 |
| 51 | `Cc1ccc(CN2CCOCC3(CCN(Cc4cccs4)C3)C2)o1.O=C(O)C(F)(F)F.O=C(O)C(F)(F)F` (stereo not drawn) | 18.23 | 4.654 | 13.56 | - | - |
| 52 | `Cn1nnnc1SCC(=O)N1CCN(C(=O)C2CC2c2cccs2)CC1` (stereo not drawn) | -0.756 | -5.085 | 0.1371 | 2.799 | 6.736 |
| 53 | `CC[C@@H]1N(Cc2ccc(OC)cc2)CCC[C@]12CCC(=O)N2CCOC` | - | - | - | -0.7408 | 1.869 |
| 54 | `CN(C)CCCn1ccnc1C1CCCN(c2cc(N)ncn2)C1` (stereo not drawn) | -12.43 | -10.27 | -3.86 | -1.736 | 6.612 |
| 55 | `CCCc1nc(C)c(CNc2nc(C)nc3oc(C)nc23)s1` | 4.34 | - | 13.61 | 7.399 | -1.149 |
| 56 | `CCn1cc(C(=O)NCC(OC)c2cccc(Cl)c2)cn1` (stereo not drawn) | 31.75 | -12.99 | -1.408 | 2.428 | 3.333 |
| 57 | `NC(=O)C1Cn2ccnc2C2(CCN(C(=O)NC3CCCC3)CC2)O1` (stereo not drawn) | - | - | - | 4.386 | -2.116 |

6 of the entries, repeated:

With CCCN1CC2(CCN(C)CC2)CC1C(=O)NCCn1cc(C)cn1 (stereo not drawn) the screen gave Leishmania in macrophages: 11.92%; T. brucei: -4.622%; Toxoplasma: -9.91%; PfKRS1: 4.326%; TcHisRS: 7.143%.
With COc1ccccc1C(O)Cn1cc(C(=O)NCC2CC2)nn1 (stereo not drawn) the screen gave Leishmania in macrophages: 12.77% and -1.986%; T. brucei: 18.86%; Toxoplasma: -1.544%; PfKRS1: 0.1698%; TcHisRS: 1.031%.
With O=C(O)C(F)(F)F.[H][C@@]12C[C@@H](C(=O)NC(C)C)C[C@@]1([H])N(Cc1nccs1)CCO2 the screen gave Leishmania in macrophages: 0.9736%; T. brucei: 5.108%; Toxoplasma: 1.724%.
With CCc1ncnc2c1CCN(C(=O)c1ccccn1)CC2 the screen gave PfKRS1: 0.8597%; TcHisRS: 4.878%.
With Cc1noc(C2CCN(C(=O)CCc3nccs3)CC2)n1 the screen gave Leishmania in macrophages: 17.11%; T. brucei: -1.977%; Toxoplasma: 4.586%; PfKRS1: 4.431%; TcHisRS: 4.58%.
With CCCc1nc(C)c(CNc2nc(C)nc3oc(C)nc23)s1 the screen gave Leishmania in macrophages: 4.34%; Toxoplasma: 13.61%; PfKRS1: 7.399%; TcHisRS: -1.149%.

Source: ChEMBL document CHEMBL3988442, “University of Dundee, Small-Polar-MMV Screening Library” (2021).